Values from PubChem BioAssay AID1053208 (Peter MacCallum Cancer Centre, 2014).
The deposit covers about 17,000 reagents; shown is a random part of them. In the full data, 788 (4.7%) got an active call. 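Calls rest on z-score classes alone; an extra cut-off of viability at most 70% of control was not applied to them.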 Not all columns of the deposit are shown.

Test: 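Find knock-downs that sensitise mouse osteosarcoma cells to doxorubicin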 (primary screen)
Cell system: mouse osteosarcoma cells, early-passage culture from an engineered mouse model of fibroblastic bone tumour
Knock-down reagent: siRNA pool against mouse genes, 40 nM
Timing: about 120 h (48 h before drug, then 72 h with drug)
Treatment: doxorubicin 100 nM for 72 h, roughly 30-40% inhibitory dose
Measurement: 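Viability read as ATP luminescence after 72 h of 100 nM doxorubicin or none, duplicate wells averaged, scaled to non-targeting siRNA, then expressed as robust z-scores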
Direction: viability z-score with doxorubicin: higher = more viable cells under doxorubicin; viability z-score without drug: higher = more viable cells with knock-down alone
Rule for the call: 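Called active if knock-down leaves viability unchanged without drug (z within -2 to 2) but lowers it with doxorubicin (z at or under -2)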

Depletion of Uba52 came out at: combined z-score class low cell count with doxorubicin only; viability z-score with doxorubicin -2.25; viability z-score without drug -0.51; active.
Depletion of Tgfbr3 gave: combined z-score class no change with or without drug; viability z-score with doxorubicin 0; viability z-score without drug 0.84; inactive.
Depletion of Or52e4 resulted in: combined z-score class no change with or without drug; viability z-score with doxorubicin -0.22; viability z-score without drug -1.52; inactive.
Depletion of Fcer2a came out at: combined z-score class no change with or without drug; viability z-score with doxorubicin -0.67; viability z-score without drug 0; inactive.
For Entpd7 the deposit lists combined z-score class no change with or without drug; viability z-score with doxorubicin 0.67; viability z-score without drug 0.51; inactive.
For S100a10 the deposit lists combined z-score class no change with or without drug; viability z-score with doxorubicin 0.67; viability z-score without drug 1.35; inactive.
Tymp scored combined z-score class no change with or without drug; viability z-score with doxorubicin -1.57; viability z-score without drug -1.52; inactive.
Fbxo3 showed combined z-score class no change with or without drug; viability z-score with doxorubicin -1.8; viability z-score without drug -0.17; inactive.
Silencing of Pigr gave: combined z-score class no change with or without drug; viability z-score with doxorubicin -0.34; viability z-score without drug -0.67; inactive.
After knock-down of Or8g19, the screen gave combined z-score class high cell count with doxorubicin only; viability z-score with doxorubicin 2.02; viability z-score without drug 1.35; inactive.
After knock-down of Antkmt, the record shows combined z-score class no change with or without drug; viability z-score with doxorubicin -0.45; viability z-score without drug -0.84; inactive.

Part of the list above, reduced to “viability z-score with doxorubicin”:
Entpd7	0.67
S100a10	0.67

Additional records follow:
Slco6b1 showed combined z-score class no change with or without drug; viability z-score with doxorubicin 0.56; viability z-score without drug 0.51; inactive.
For Mprip the deposit lists combined z-score class no change with or without drug; viability z-score with doxorubicin 0; viability z-score without drug -0.17; inactive.
After knock-down of Zfp207, the record shows combined z-score class no change with or without drug; viability z-score with doxorubicin -0.67; viability z-score without drug -1.18; inactive.
Against Or8k35 the deposit lists combined z-score class no change with or without drug; viability z-score with doxorubicin 0.22; viability z-score without drug -0.17; inactive.
For Qtgal the deposit lists combined z-score class high cell count with doxorubicin only; viability z-score with doxorubicin 2.02; viability z-score without drug 0.51; inactive.
Rps20 gave combined z-score class low cell count with doxorubicin only; viability z-score with doxorubicin -3.37; viability z-score without drug -1.18; active.
Silencing of Gpr141b gave: combined z-score class no change with or without drug; viability z-score with doxorubicin -0.67; viability z-score without drug -1.01; inactive.
For Msx3 the deposit lists combined z-score class no change with or without drug; viability z-score with doxorubicin 0.45; viability z-score without drug 0.34; inactive.
With knock-down of Scrt1, the screen gave combined z-score class high cell count without drug only; viability z-score with doxorubicin 0.67; viability z-score without drug 2.02; inactive.
With knock-down of Shd, the record shows combined z-score class no change with or without drug; viability z-score with doxorubicin 0.56; viability z-score without drug -0.84; inactive.
Akr1cl scored combined z-score class high cell count with doxorubicin only; viability z-score with doxorubicin 2.81; viability z-score without drug 1.69; inactive.
After knock-down of Ugt8a, the screen gave combined z-score class no change with or without drug; viability z-score with doxorubicin 0.34; viability z-score without drug 0; inactive.
Depletion of Bcl11a resulted in: combined z-score class no change with or without drug; viability z-score with doxorubicin 0.22; viability z-score without drug 0; inactive.
Against Or13c3, the values are combined z-score class no change with or without drug; viability z-score with doxorubicin 0.67; viability z-score without drug -1.18; inactive.
Rgs4 showed combined z-score class no change with or without drug; viability z-score with doxorubicin 1.8; viability z-score without drug 1.18; inactive.
Against Cdk14, the entry reads combined z-score class no change with or without drug; viability z-score with doxorubicin 0.45; viability z-score without drug -0.67; inactive.
Nherf4 gave combined z-score class no change with or without drug; viability z-score with doxorubicin 0.22; viability z-score without drug 0.17; inactive.
